Results on one molecule are retold here after article PMC4567572.

The target in this assay is OsPYL1 (Oryza sativa L. ssp. Japonica cv. Nipponbare). Description: two-hybrid; full-length OsPYLs and OsPP2Cs in pDEST32 or pDEST22 as baits or preys, yeast strain Y2H gold; growth on SD/-His/-Leu/-Trp with 3-AT (0, 3.0, 5.0 and 10 mM), in the absence or presence of ABA; 4 days at 30 °C.

These are yes or no findings as the source states them, for the method shown. Binding can be weak; no strength is given.

B1: OsPP2C53 (enzyme, UniProt Q6L4R7 1-445)
chain: MEDLALPAAPPAPTLSFTLLAAAAAVAEAMEEALGAALPPLTAPVPAPGDDSACGSPCSVASDCSSVASADFEGFAELGTSLLAGPAVLFDDLTAASVAVAEAAEPRAVGATARSVFAMDCVPLWGLESICGRRPEMEDDYAVVPRFFDLPLWMVAGDAAVDGLDRASFRLPAHFFAVYDGHGGVQVANYCRKRIHAVLTEELRRAEDDACGSDLSGLESKKLWEKAFVDCFSRVDAEVGGNAASGAPPVAPDTVGSTAVVAVVCSSHVIVANCGDSRAVLCRGKQPLPLSLDHKPNREDEYARIEALGGKVIQWNGYRVLGVLAMSRSIGDKYLKPYIIPVPEVTVVARAKDDDCLILASDGLWDVMSNEEVCDAARKRILLWHKKNAATASTSSAQISGDSSDPAAQAAADYLSKLALQKGSKDNITVVVIDLKAHRKFKSKA
Turning to B1, the binding result was “binds”.
